Experimental data taken from patent US7326731B2, “Muscarinic agonists” (Eli Lilly and Company, priority 2002, dated 2008).

System: Male Sprague-Dawley rats
Details: s.c. immediately after the sampling phase; three-hour delay; dose-related

## CN1[C@@H]2C[C@@H](OC(=O)[C@H](CO)c3ccccc3)C[C@H]1[C@@H]1O[C@@H]12 [Scopolamine, scopolamine]
  retention in the eight arm radial maze: disrupted retention
